Measurements published in ChEMBL document CHEMBL5674883, “The Heterochromatin Landscape in Migrating Cells and the Importance of H3K27me3 for Associated Transcriptome Alterations” (Cells, 2018).
Further values from the same series stand in other lists.

Protein sequences, listed by entry. Tags and fused reporters are not part of them.
UniProt Q61188, whole entry: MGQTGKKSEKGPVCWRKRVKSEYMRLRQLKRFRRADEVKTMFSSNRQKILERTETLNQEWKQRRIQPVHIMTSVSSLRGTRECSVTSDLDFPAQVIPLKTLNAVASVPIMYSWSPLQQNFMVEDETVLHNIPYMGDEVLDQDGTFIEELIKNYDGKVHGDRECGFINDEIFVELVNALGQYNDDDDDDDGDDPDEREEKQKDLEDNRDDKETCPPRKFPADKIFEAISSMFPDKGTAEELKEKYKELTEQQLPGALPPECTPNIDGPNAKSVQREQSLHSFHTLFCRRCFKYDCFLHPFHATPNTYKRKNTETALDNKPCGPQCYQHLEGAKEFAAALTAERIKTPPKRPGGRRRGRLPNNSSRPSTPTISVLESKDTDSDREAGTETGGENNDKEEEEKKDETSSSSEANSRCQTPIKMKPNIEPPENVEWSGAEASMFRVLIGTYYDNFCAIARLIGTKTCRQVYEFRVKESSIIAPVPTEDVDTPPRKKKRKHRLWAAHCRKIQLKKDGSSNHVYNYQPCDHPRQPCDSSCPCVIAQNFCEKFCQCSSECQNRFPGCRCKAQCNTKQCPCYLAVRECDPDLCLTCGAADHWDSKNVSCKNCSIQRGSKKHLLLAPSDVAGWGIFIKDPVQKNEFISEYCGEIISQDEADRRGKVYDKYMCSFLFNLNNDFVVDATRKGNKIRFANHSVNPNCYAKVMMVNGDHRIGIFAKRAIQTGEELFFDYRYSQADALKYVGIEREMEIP

Experiments:
Type in all cases: cell-based
[1] = target: Histone-lysine N-methyltransferase EZH2 (Mus musculus) (UniProt Q61188); test: Inhibition of EZH2 in mouse B16-F1 migrating cells assessed as fold change in H3K27me3-buffered regulated Kif18a-mRNA expression at 3 uM measured by ChIP-seq analysis relative to control cells
[2] = target: Histone-lysine N-methyltransferase EZH2 (Mus musculus) (UniProt Q61188); test: Inhibition of EZH2 in mouse B16-F1 migrating cells assessed as fold change in H3K27me3-independent regulated Sapcd2-mRNA expression at 3 uM measured by ChIP-seq analysis relative to control cells
[3] = target: Histone-lysine N-methyltransferase EZH2 (Mus musculus) (UniProt Q61188); test: Inhibition of EZH2 in mouse B16-F1 migrating cells assessed as fold change in H3K27me3-buffered regulated Pigg-mRNA expression at 3 uM measured by ChIP-seq analysis relative to control cells
[4] = target: Histone-lysine N-methyltransferase EZH2 (Mus musculus) (UniProt Q61188); test: Inhibition of EZH2 in mouse B16-F1 migrating cells assessed as fold change in H3K27me3-buffered regulated Krit1-mRNA expression at 3 uM measured by ChIP-seq analysis relative to control cells
[5] = target: Histone-lysine N-methyltransferase EZH2 (Mus musculus) (UniProt Q61188); test: Inhibition of EZH2 in mouse B16-F1 migrating cells assessed as fold change in H3K27me3-independent regulated Tnfrsf12a-mRNA expression at 3 uM measured by ChIP-seq analysis relative to control cells
[6] = target: Histone-lysine N-methyltransferase EZH2 (Mus musculus) (UniProt Q61188); test: Inhibition of EZH2 in mouse B16-F1 migrating cells assessed as fold change in H3K27me3-buffered regulated Crem-mRNA expression at 3 uM measured by ChIP-seq analysis relative to control cells
[7] = target: Histone-lysine N-methyltransferase EZH2 (Mus musculus) (UniProt Q61188); test: Inhibition of EZH2 in mouse B16-F1 migrating cells assessed as fold change in H3K27me3-buffered regulated Cnnm1-mRNA expression at 3 uM measured by ChIP-seq analysis relative to control cells
[8] = target: Histone-lysine N-methyltransferase EZH2 (Mus musculus) (UniProt Q61188); test: Inhibition of EZH2 in mouse B16-F1 migrating cells assessed as fold change in H3K27me3-buffered regulated Egln3-mRNA expression at 3 uM measured by ChIP-seq analysis relative to control cells
[9] = target: Histone-lysine N-methyltransferase EZH2 (Mus musculus) (UniProt Q61188); test: Inhibition of EZH2 in mouse B16-F1 migrating cells assessed as fold change in H3K27me3-independent regulated Gadd45g-mRNA expression at 3 uM measured by ChIP-seq analysis relative to control cells
[10] = target: Histone-lysine N-methyltransferase EZH2 (Mus musculus) (UniProt Q61188); test: Inhibition of EZH2 in mouse B16-F1 migrating cells assessed as fold change in H3K27me3-buffered regulated Zkscan5-mRNA expression at 3 uM measured by ChIP-seq analysis relative to control cells
[11] = target: Histone-lysine N-methyltransferase EZH2 (Mus musculus) (UniProt Q61188); test: Inhibition of EZH2 in mouse B16-F1 migrating cells assessed as fold change in H3K27me3-buffered regulated Atg16l2-mRNA expression at 3 uM measured by ChIP-seq analysis relative to control cells
[12] = target: Histone-lysine N-methyltransferase EZH2 (Mus musculus) (UniProt Q61188); test: Inhibition of EZH2 in mouse B16-F1 migrating cells assessed as fold change in H3K27me3-buffered regulated Ccdc74a-mRNA expression at 3 uM measured by ChIP-seq analysis relative to control cells
[13] = target: Histone-lysine N-methyltransferase EZH2 (Mus musculus) (UniProt Q61188); test: Inhibition of EZH2 in mouse B16-F1 migrating cells assessed as fold change in H3K27me3-buffered regulated Plxnb1-mRNA expression at 3 uM measured by ChIP-seq analysis relative to control cells
[14] = target: T1, RNA polymerase II (Mus musculus) (UniProt P08775+Q8CFI7+P97760+A0A3Q4L2S8+Q80UW8+P61219+P62488+Q923G2+P60898+O08740+Q63871+P62876); test: Inhibition of RNA polymerase II in mouse B16-F1 migrating cells assessed as fold change in Zfp386-RNA stability at 0.1 mM measured by ChIP-seq analysis relative to control cells
[15] = target: T1, RNA polymerase II (Mus musculus); test: Inhibition of RNA polymerase II in mouse B16-F1 migrating cells assessed as fold change in Nexn-RNA stability at 0.1 mM measured by ChIP-seq analysis relative to control cells
[16] = target: T1, RNA polymerase II (Mus musculus); test: Inhibition of RNA polymerase II in mouse B16-F1 migrating cells assessed as fold change in Aldoa-RNA stability at 0.1 mM measured by ChIP-seq analysis relative to control cells
[17] = target: T1, RNA polymerase II (Mus musculus); test: Inhibition of RNA polymerase II in mouse B16-F1 migrating cells assessed as fold change in Dnm1l-RNA stability at 0.1 mM measured by ChIP-seq analysis relative to control cells
[18] = target: T1, RNA polymerase II (Mus musculus); test: Inhibition of RNA polymerase II in mouse B16-F1 migrating cells assessed as fold change in B3galt1-RNA stability at 0.1 mM measured by ChIP-seq analysis relative to control cells
[19] = target: T1, RNA polymerase II (Mus musculus); test: Inhibition of RNA polymerase II in mouse B16-F1 migrating cells assessed as fold change in Gm3839-RNA stability at 0.1 mM measured by ChIP-seq analysis relative to control cells
[20] = target: T1, RNA polymerase II (Mus musculus); test: Inhibition of RNA polymerase II in mouse B16-F1 migrating cells assessed as fold change in CT030181.1-RNA stability at 0.1 mM measured by ChIP-seq analysis relative to control cells
[21] = target: T1, RNA polymerase II (Mus musculus); test: Inhibition of RNA polymerase II in mouse B16-F1 migrating cells assessed as fold change in Zfp280d-RNA stability at 0.1 mM measured by ChIP-seq analysis relative to control cells
[22] = target: T1, RNA polymerase II (Mus musculus); test: Inhibition of RNA polymerase II in mouse B16-F1 migrating cells assessed as fold change in Ermp1-RNA stability at 0.1 mM measured by ChIP-seq analysis relative to control cells
[23] = target: T1, RNA polymerase II (Mus musculus); test: Inhibition of RNA polymerase II in mouse B16-F1 migrating cells assessed as fold change in Ergic2-RNA stability at 0.1 mM measured by ChIP-seq analysis relative to control cells
[24] = target: T1, RNA polymerase II (Mus musculus); test: Inhibition of RNA polymerase II in mouse B16-F1 migrating cells assessed as fold change in Spcs3-RNA stability at 0.1 mM measured by ChIP-seq analysis relative to control cells
[25] = target: T1, RNA polymerase II (Mus musculus); test: Inhibition of RNA polymerase II in mouse B16-F1 migrating cells assessed as fold change in Prr13-RNA stability at 0.1 mM measured by ChIP-seq analysis relative to control cells
[26] = target: T1, RNA polymerase II (Mus musculus); test: Inhibition of RNA polymerase II in mouse B16-F1 migrating cells assessed as fold change in Brpf1-RNA stability at 0.1 mM measured by ChIP-seq analysis relative to control cells
[27] = target: T1, RNA polymerase II (Mus musculus); test: Inhibition of RNA polymerase II in mouse B16-F1 migrating cells assessed as fold change in Nin-RNA stability at 0.1 mM measured by ChIP-seq analysis relative to control cells
[28] = target: T1, RNA polymerase II (Mus musculus); test: Inhibition of RNA polymerase II in mouse B16-F1 migrating cells assessed as fold change in 9530082P21Rik-RNA stability at 0.1 mM measured by ChIP-seq analysis relative to control cells
[29] = target: T1, RNA polymerase II (Mus musculus); test: Inhibition of RNA polymerase II in mouse B16-F1 migrating cells assessed as fold change in Tmem134-RNA stability at 0.1 mM measured by ChIP-seq analysis relative to control cells
[30] = target: T1, RNA polymerase II (Mus musculus); test: Inhibition of RNA polymerase II in mouse B16-F1 migrating cells assessed as fold change in Emc1-RNA stability at 0.1 mM measured by ChIP-seq analysis relative to control cells

CCCc1cc(C)[nH]c(=O)c1CNC(=O)c1cc(-c2ccnc(N3CCN(C)CC3)c2)cc2c1cnn2C(C)C was tested, and the log2FC [1] was -0.6, the log2FC [2] was -0.55 and the log2FC [3] was -0.43. For the same compound, the log2FC [4] was -0.43, the log2FC [5] was 0.47 and the log2FC [6] was 0.55. The log2FC [7] was 0.43, the log2FC [8] was -0.94 and the log2FC [9] was 0.84. It also gave a log2FC [10] of 0.41, a log2FC [11] of -0.53 and a log2FC [12] of -0.63. The log2FC [13] was -0.47.

For OC[C@H]1O[C@@H](n2cnc3cc(Cl)c(Cl)cc32)[C@H](O)[C@@H]1O, the log2FC [14] was -0.74, the log2FC [15] was -0.87 and the log2FC [16] was 0.65. For the same compound, the log2FC [17] was -0.5, the log2FC [18] was -0.9 and the log2FC [19] was 0.52. The log2FC [20] was 0.68, the log2FC [21] was -0.55 and the log2FC [22] was -0.4. The log2FC [23] was -0.5, the log2FC [24] was -0.47 and the log2FC [25] was 0.47. The log2FC [26] was -0.39, the log2FC [27] was -0.59 and the log2FC [28] was 0.4. It also gave a log2FC [29] of 0.57 and a log2FC [30] of -0.41.
